This is an account of results in paper doi:10.1101/679431.

Results are given in words; binding and its absence hold for the method and conditions named. Binding seen in cells or lysates may run through a third protein. These calls come from enrichment with a bait or labelling near it, and not all partners need be listed. A no says only that the protein was not detected with the bait. Tags and fused reporters may be left off the sequences shown.

The target in this test is T1, WT TRAP1 with C-terminal HA tag (pcDNA3.1 (+) MTS-HA vector) (human), Q12931.
T1 chain: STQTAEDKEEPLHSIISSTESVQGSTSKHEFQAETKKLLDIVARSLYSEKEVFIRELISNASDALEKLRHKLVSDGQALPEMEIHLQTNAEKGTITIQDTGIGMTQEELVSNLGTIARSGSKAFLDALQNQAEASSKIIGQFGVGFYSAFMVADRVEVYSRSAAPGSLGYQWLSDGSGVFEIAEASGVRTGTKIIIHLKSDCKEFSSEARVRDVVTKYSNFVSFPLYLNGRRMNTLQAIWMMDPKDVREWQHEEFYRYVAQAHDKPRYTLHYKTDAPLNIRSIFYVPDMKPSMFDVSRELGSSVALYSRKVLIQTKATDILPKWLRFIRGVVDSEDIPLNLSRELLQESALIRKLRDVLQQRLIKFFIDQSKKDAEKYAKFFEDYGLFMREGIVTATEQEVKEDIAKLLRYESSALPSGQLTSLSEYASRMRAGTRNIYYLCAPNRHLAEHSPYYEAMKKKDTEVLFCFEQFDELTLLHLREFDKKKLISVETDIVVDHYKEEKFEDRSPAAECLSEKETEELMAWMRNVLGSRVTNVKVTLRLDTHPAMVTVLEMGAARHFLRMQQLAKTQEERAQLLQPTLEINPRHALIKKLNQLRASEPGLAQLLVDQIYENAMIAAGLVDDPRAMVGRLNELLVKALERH
The test can be described thus: affinity purification with mass spectrometry. As to conditions: remark: other sources report otherwise.

B1: PINK1, Q9BXM7 78-581 (protein)
chain: AARLQRQFVVRAWGCAGPCGRAVFLAFGLGLGLIEEKQAESRRAVSACQEIQAIFTQKSKPGPDPLDTRRLQGFRLEEYLIGQSIGKGCSAAVYEATMPTLPQNLEVTKSTGLLPGRGPGTSAPGEGQERAPGAPAFPLAIKMMWNISAGSSSEAILNTMSQELVPASRVALAGEYGAVTYRKSKRGPKQLAPHPNIIRVLRAFTSSVPLLPGALVDYPDVLPSRLHPEGLGHGRTLFLVMKNYPCTLRQYLCVNTPSPRLAAMMLLQLLEGVDHLVQQGIAHRDLKSDNILVELDPDGCPWLVIADFGCCLADESIGLQLPFSSWYVDRGGNGCLMAPEVSTARPGPRAVIDYSKADAWAVGAIAYEIFGLVNPFYGQGKAHLESRSYQEAQLPALPESVPPDVRQLVRALLQREASKRPSARVAANVLHLSLWGEHILALKNLKLDKMVGWLLQQSAATLLANRLTEKCCVETKMKMLFLANLECETLCQAALLLCSWRAAL
Take B1: the binding entry is reported as “no binding”.
